Drawing on patent publication US20240382610A1, this text covers binding for one molecule.

Chains of the proteins cited; added tags and fusions are not shown. Residues count along the entry.
UniProt Q96NY8, residues 32-510: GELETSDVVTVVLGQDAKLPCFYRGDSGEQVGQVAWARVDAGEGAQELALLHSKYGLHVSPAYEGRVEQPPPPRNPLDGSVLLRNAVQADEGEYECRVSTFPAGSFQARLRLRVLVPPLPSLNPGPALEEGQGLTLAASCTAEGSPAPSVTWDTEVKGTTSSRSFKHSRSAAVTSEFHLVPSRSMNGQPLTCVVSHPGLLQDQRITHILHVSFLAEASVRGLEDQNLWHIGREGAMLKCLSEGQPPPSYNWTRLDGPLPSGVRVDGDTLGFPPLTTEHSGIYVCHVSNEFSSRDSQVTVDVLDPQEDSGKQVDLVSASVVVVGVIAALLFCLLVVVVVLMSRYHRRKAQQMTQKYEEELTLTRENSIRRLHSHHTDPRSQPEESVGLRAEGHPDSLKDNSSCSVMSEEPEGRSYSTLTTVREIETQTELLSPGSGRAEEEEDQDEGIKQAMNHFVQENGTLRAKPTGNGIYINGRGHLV

No constants are given. Whether binding was seen depends on the method and setting. Some binding calls cover weakened binding; strength is not graded here.

For assay [1], the target named is Human nectin-4-IgV-6His (TNT-252) (human) (UniProt Q96NY8). The assay is described as follows: SPR Biacore 8K.
Assay [2] concerns the target human nectin-4 on cells (human) (UniProt Q96NY8). The assay is described as follows: flow cytometry, AF647-labelled antibody on SKBR3 cells (endogenous nectin-4). Background: Flow cytometry measures light scatter and fluorescence of single cells or particles in a stream.

B1: TNT-336 (antibody, V domains shown)
VH: KVQLVESGGGLVQPGGSLRLSCEASGFTFSNYWMHWVRQVPGEGLVWVSRLNNGGTSTRYADSVKSRFTISRDNAKNTLYLQMNSLRAEDTAVYYCVRDWYFDLWGRGTLVTVSS
VL: QLVLTQSPSASASLGASVKLTCTLSSGHSFYAIAWHQQQPEKGPRYLMQVNSNGSHNKGDGIPDRFSGSSSGAERYLTISSLQSEDEADYYCQSWDTDIWVFGGGTKLTVLG
For the molecule B1, the binding entry in assay [1] and in assay [2] was “binds” throughout.
